Data source: PubChem BioAssay AID1259405 (NCATS, 2018)
Aim: 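Mouse-designed siRNAs used to find CHO productivity engineering targets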 (primary screen). Cells: Chinese hamster CHO-K1 ovary cells with stable secreted eGFP expression. Reagent: single siRNA against mouse genes, 0.8 pmol siRNA per well (2 µl of 400 nM stock). Time to read-out: 3 days. Detection: 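Per-well intracellular GFP measured by laser scanning cytometry, plus viability from ATP luminescence, each relative to plate median of non-targeting control wells, in %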. Scale: GFP, % of control: higher = more GFP per well, higher productivity; viability (ATP), % of control: higher = more viable cells (more ATP). Active means: 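a knock-down is called active if GFP reaches 120% or more of non-targeting control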.
The whole screen tested about 50,000 reagents; this is an unselected part. Of all reagents, about 4,000 (8%) are marked active. 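Mouse siRNA library applied to hamster cells; one well for each siRNA.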 Reagents against one gene are numbered here.

Gene,reagent,"GFP, % of control","viability (ATP), % of control",Outcome
Or51h5,1,31.5,31.8,inactive
Or51h5,2,60.3,44.2,inactive
Or51h5,3,71.4,83.9,inactive
Selenop,1,34.1,17.8,inactive
Selenop,2,26.7,69.8,inactive
Selenop,3,52.3,71.8,inactive
Dis3l2,1,30.2,36.4,inactive
Dis3l2,2,49.5,56.8,inactive
Dis3l2,3,63.9,54.8,inactive
Frem2,1,83.1,71.3,inactive
Frem2,2,82.8,50.2,inactive
Frem2,3,36.1,56,inactive
Or4a72,1,100,117,inactive
Or4a72,2,48.7,82.6,inactive
Or4a72,3,60.1,112,inactive

The list goes on, starting with the last 4 of the part before.
Gene,reagent,"GFP, % of control","viability (ATP), % of control",Outcome
Frem2,3,36.1,56,inactive
Or4a72,1,100,117,inactive
Or4a72,2,48.7,82.6,inactive
Or4a72,3,60.1,112,inactive
Med11,1,68.2,70.9,inactive
Med11,2,74.4,47.5,inactive
Med11,3,109,88.7,inactive
Ntf3,1,95.4,67.6,inactive
Ntf3,2,103,65.1,inactive
Ntf3,3,60.2,65.7,inactive
Il7,1,76.5,116,inactive
Il7,2,74.4,92.4,inactive
Prss40,1,71,100,inactive
Prss40,2,76,96,inactive
Prss40,3,123,89.7,active
Nsun3,1,66.1,48.2,inactive
Nsun3,2,94.1,80.3,inactive
Nsun3,3,69.9,74.3,inactive
Btg2,1,51.3,54.9,inactive
Btg2,2,79.1,87.9,inactive
Btg2,3,146,132,active
Lrrc3b,1,138,72.5,active
Lrrc3b,2,87.3,95.5,inactive
Lrrc3b,3,77,79.4,inactive
